Reference: PubChem BioAssay AID1259424 (University of Nebraska Medical Center, 2018)
Screen: 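Rank knockdowns across the genome by resemblance to the KSR1 depletion profile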 (primary screen). Cells: human HCT116 colon cancer cells. Reagent: siRNA pool against human genes, 50 nM. Read-out: 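Six signature mRNAs by branched-DNA multiplex assay, scaled to two housekeeping genes and non-targeting median, log2; matched to mean KSR1 knockdown profile by Pearson correlation and euclidean distance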. Reading the numbers: mean correlation with KSR1 profile: higher = expression change more like KSR1 knockdown; mean distance from KSR1 profile: higher = expression change less like KSR1 knockdown.
Here is one part, drawn at random, of about 14,000 deposited reagents. 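Higher correlation or smaller distance means closer resemblance to KSR1 loss; control wells, including KSR1 knockdowns, recur on many plates.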 Further read-outs or replicates are left out here. Reagent sequences are not shown. Not given: the time to read-out.

target	mean correlation with KSR1 profile	mean distance from KSR1 profile
TNFRSF14 (GeneID 8764)	-0.131	2.68
NAA38 (GeneID 84316)	0.677	1.13
PRKACB (GeneID 5567)	-0.123	1.59
PILRA (GeneID 29992)	0.338	1.48
ZNF71 (GeneID 58491)	-0.593	2.77
TBCE (GeneID 6905)	0.00768	1.8
FCF1 (GeneID 51077)	0.666	1.56
TCN1 (GeneID 6947)	0.154	2.26
MARCHF7 (GeneID 64844)	-0.131	1.02
RRN3P1 (GeneID 730092)	-0.489	2.48
KRT15 (GeneID 3866)	-0.68	1.37
DHX9 (GeneID 1660)	0.179	1.82
ZNF135 (GeneID 7694)	0.346	1.63
SMPD2 (GeneID 6610)	0.0584	3.32
SYNE3 (GeneID 161176)	0.326	1.66
EDC3 (GeneID 80153)	0.351	2.9
OR1D4 (GeneID 653166)	0.3	2.12
RAP2C (GeneID 57826)	-0.202	1.32
CALHM2 (GeneID 51063)	0.189	3.09
MDC1 (GeneID 9656)	-0.372	2.84
ST6GAL1 (GeneID 6480)	0.333	2.27
ZNF747 (GeneID 65988)	-0.0824	1.13
JAG2 (GeneID 3714)	-0.202	2.87
PRDM13 (GeneID 59336)	0.8	1.33
BRD8 (GeneID 10902)	-0.509	4.56
CHRM2 (GeneID 1129)	0.579	1.48
OSGEPL1 (GeneID 64172)	-0.612	4.53
ZNF473 (GeneID 25888)	0.114	2.2
RAD52 (GeneID 5893)	-0.381	1.87
PICK1 (GeneID 9463)	0.52	1.82
UBTF (GeneID 7343)	0.763	1.26
NAA20 (GeneID 51126)	-0.222	1.86
ADCY1 (GeneID 107)	-0.124	2.05
CHRM3 (GeneID 1131)	0.366	2.31
COPE (GeneID 11316)	0.386	1.79
CCNA2 (GeneID 890)	-0.0178	2.14
CSTF3 (GeneID 1479)	0.73	1.21
WDR82 (GeneID 80335)	0.41	2.27
EYA4 (GeneID 2070)	-0.288	3.1
PLEK (GeneID 5341)	0.615	0.833
CRABP2 (GeneID 1382)	-0.0511	2.22
STX16 (GeneID 8675)	-0.0199	2.18
PAK3 (GeneID 5063)	0.587	1.2
PPTC7 (GeneID 160760)	-0.0974	3.48
APOL1 (GeneID 8542)	-0.231	2.7
BCAS2 (GeneID 10286)	-0.203	3.39
GNRH1 (GeneID 2796)	0.761	1.1
ADARB2 (GeneID 105)	0.00175	2.94
ARL15 (GeneID 54622)	-0.513	4.95
RTKN (GeneID 6242)	-0.414	1.61
MAP1LC3A (GeneID 84557)	0.102	3.1
TMCC2 (GeneID 9911)	-0.959	1.57
CTAG1B (GeneID 1485)	0.372	5.86
CYB561 (GeneID 1534)	0.12	2.54
DDX27 (GeneID 55661)	-0.644	3.82
FASTK (GeneID 10922)	0.494	1.31
WDR59 (GeneID 79726)	0.588	1.26
NEK7 (GeneID 140609)	0.317	1.38
GAGE4 (GeneID 2576)	-0.0712	1.95
RMP64 (GeneID 25871)	-0.378	2.03
ERC2 (GeneID 26059)	-0.275	2.96
KRAS (GeneID 3845)	0.502	2.34
FBXO6 (GeneID 26270)	-0.196	2.91

Copied from above (4 entries):
target	mean correlation with KSR1 profile	mean distance from KSR1 profile
KRT15 (GeneID 3866)	-0.68	1.37
DHX9 (GeneID 1660)	0.179	1.82
ZNF135 (GeneID 7694)	0.346	1.63
SMPD2 (GeneID 6610)	0.0584	3.32
